Reference: PubChem BioAssay AID504467 (National Center for Advancing Translational Sciences (NCATS), 2011)
Among all 330,000 compounds or so, about 7,700 (2.3%) were called active. Inconclusive results, whose numbers are uncertain, are shown with a selection of clear calls. Calls follow the shape of the dose curve; as a rule, active = well fitted inhibition curve with a large enough effect; inconclusive = small, poorly fitted or top-dose-only effect, or effect the other way; inactive = flat fitted curve, though single readings scatter. Potencies beside an inconclusive call are fits to weak or partial responses and may not hold up. Non-standard residues stand in square brackets, D forms with d. Residues, ends and D or L forms follow the SMILES beside them. ξ: configuration not given here. *: point of attachment. Boc = CC(C)(C)OC(=O)*; ξP = O=C(O)C1CCCN1

Assay: qHTS screen for small molecules that inhibit ELG1-dependent DNA repair in human embryonic kidney (HEK293T) cells expressing luciferase-tagged ELG1; also: nearly all actives have a fitted effect of over 55% in size
Conditions: HEK293T ELG1-luciferase reporter, luminescence, 16 h, DNA damage induced by 5-fluorouridine; activity change, negative = inhibition: at 46.1 µM (top of the series)
Summary of the method: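 Luminescence from the luciferase reporter, measured 30 min after ONE-Glo reagent at room temperature, was the read-out. Beforehand, 2,000 cells per well were exposed for 16 hr at 37 °C to 5-fluorouridine together with compound or vehicle.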
% is scaled to controls: 0 for no effect and ±100 for the full control effect; potency is read from the fitted curve at half-maximal effect.

SMILES | activity change, negative = inhibition | Potency
COc1ccc(/C=C/C(=O)Nc2cc(C(F)(F)F)ccc2Cl)cc1OC | inactive: -25.5% | –
O=C(CSc1ccsc1[N+](=O)[O-])Nc1cccc(F)c1 | – | inconclusive: 16.4 µM [activator, partial curve, poor fit]
CC1CC1C(=O)OCC(=O)NC(=O)NC12CC3CC(CC(C3)C1)C2 (centres undefined) | – | inconclusive: 20.6 µM [activator, partial curve]
O=C(O)/C=C/c1ccc(-n2ccnc2)cc1 | – | inconclusive: 8.2 µM [activator, partial curve]
COC(=O)CNC(=O)C1CCCN1C(=O)CNC(=O)OC(C)(C)C (stereo not drawn) (Boc-Gly-[ξP]-Gly-OMe) | – | inconclusive: 29.1 µM [activator, single point]
O=C(CC1N=C(Cc2ccccc2)NNC1=O)N/N=C/c1ccc([N+](=O)[O-])cc1 (centres undefined) | inactive: -13% | –
Cc1ccc(N/N=C2/CCCNC2=O)cc1 | – | inconclusive: 20.6 µM [activator, single point]
COc1ccc(-c2cn(CCN)c(-c3ccncc3)n2)cc1 | – | inconclusive: 11.2 µM [activator, partial curve, poor fit]
COc1ccc(CNC(=O)COC(=O)c2ccc(Br)c(S(=O)(=O)N3CCOCC3)c2)cc1 | – | inconclusive: 3.66 µM [inhibitor, single point]
O=C(CCC(=O)N1CCCc2ccccc21)N1CCN(S(=O)(=O)c2ccccc2)CC1 | – | inconclusive: 23.1 µM [inhibitor, partial curve]
CCOC(=O)c1cc(-c2ccccc2)sc1NC(=O)CSc1nnc(N)s1 | – | inconclusive: 32.6 µM [inhibitor, partial curve, poor fit]
CC(=O)N1c2ccc(S(=O)(=O)N3CCCC3)cc2CC1C(=O)Nc1cc(C)cc(C)c1 (centres undefined) | inactive: 5.8% | –
CCN(CC)C(=O)c1ccc2c(=O)n(Cc3cccc(Br)c3)c(=S)[nH]c2c1 | – | inconclusive: 20.6 µM [inhibitor, partial curve]
Cn1ccc(C(=O)Nc2ccc(Br)cc2Br)n1 | – | inconclusive: 2.31 µM [activator, full curve]
Cc1cccc(NC(=O)NCCN2C(=O)C3C4C=CC(C4)C3C2=O)c1 (centres undefined) | – | inconclusive: 20.6 µM [activator, single point]
COc1ccc(-c2cc(C(=O)N3CCN(c4ncccn4)CC3)c3ccccc3n2)cc1 | – | active: 15.8 µM
O=C(C1CCN(c2nnc(-n3cccc3)s2)CC1)N1CCN(c2cccc(C(F)(F)F)c2)CC1 | – | inconclusive: 1.84 µM [inhibitor, partial curve, poor fit]
Cc1cc(C)c2cc(C(=O)Nc3ccc4c(c3)OCO4)[nH]c2c1 | inactive: 15.7% | –
CC1CC(=O)Nc2ccccc2N1C(=O)COc1ccc2cc(Br)ccc2c1 (centres undefined) | inactive: -1.49% | –
O=C(CSc1nc2ccccc2c(=O)n1CCCN1CCOCC1)NCCc1ccccc1 | inactive: 6.36% | –
CC(C)Oc1cccc(C(=O)NC(=S)Nc2cccc(C(F)(F)F)c2)c1 | inactive: 1.03% | –
CCc1ccc(CCC(=O)Nc2ccc(Br)cc2)o1 | inactive: -2.58% | –
COC(=O)c1ccc(N2CCOCC2)c(NC(=O)c2cccnc2)c1 | inactive: 0.267% | –

SMILES | activity change, negative = inhibition | Potency
COc1ccc2c(C)cc(N3CCCCCC3)nc2c1 | inactive: 3.13% | –
CCOc1ccc(OCc2cccc(C(=O)N(CC)CC)c2)cc1 | – | inconclusive: 0.651 µM [activator, full curve]
CC(C)CCC1=NN(C(=O)c2ccco2)C(O)(C(F)(F)F)C1 (centres undefined) | – | inconclusive: 29.1 µM [inhibitor, single point]
Fc1cccc(Nc2nc3ccccc3n3nnnc23)c1 | – | inconclusive: 25.9 µM [activator, single point]
Clc1ccc(C(c2ccccc2)N2CCN(c3ccccn3)CC2)cc1 (centres undefined) | – | inconclusive: 29.1 µM [inhibitor, single point]
O=C(CNC(=O)c1ccc(S(=O)(=O)N2CCCC2)cc1)N/N=C/c1c(Cl)cccc1Cl | – | inconclusive: 29.1 µM [inhibitor, single point]
c1nc(N2CCNCC2)c2sc3nc(N4CCOCC4)c4c(c3c2n1)CCC4 | inactive: 0% | –
CCCC1CCC(c2ccc(C(=O)NN)cc2)CC1 (centres undefined) | – | inconclusive: 25.9 µM [inhibitor, partial curve, poor fit]
O=C(Nc1cccc(Cl)c1N1CCCC1)c1ccco1 | – | inconclusive: 18.3 µM [inhibitor, single point]
Cc1ccccc1OCC(=O)Nc1ccc2c(c1)ncn2C | – | inconclusive: 9.2 µM [activator, partial curve]
COc1cc(C(=O)Nc2cccc(-c3nc4ncccc4o3)c2C)cc(OC)c1OC | inactive: -15.5% | –
COc1ccc(OC)c(NC(=O)C2CCCN(S(=O)(=O)c3cccc4cccnc34)C2)c1 (centres undefined) | – | inconclusive: 20.6 µM [inhibitor, partial curve]
CCC(C)NC(=O)c1ccc2c(Cl)c3c(nc2c1)CCC3 (centres undefined) | – | inconclusive: 4.61 µM [activator, full curve]
O=C(c1ccc(N2CCOCC2)c([N+](=O)[O-])c1)N1CCN(Cc2ccccc2)CC1 | – | inconclusive: 29.1 µM [inhibitor, single point]
CC(NC(=O)c1cccc(OC2CCN(C(=O)C3CC3)CC2)c1)c1ccc(F)cc1 (centres undefined) | inactive: -11.9% | –
Cc1ccc(C(=O)N2CCN(c3ccc(NC(=O)c4ccc5c(c4)OCCO5)cc3)CC2)cc1 | – | inconclusive: 13 µM [inhibitor, partial curve, poor fit]
COc1ccc2[nH]c3c(NCCCOC(C)C)ncnc3c2c1 | – | inconclusive: 2.91 µM [activator, partial curve]
CC1CCCCN1C(=O)c1cccc(NC2=C(Cl)C(=O)N(Cc3ccccc3)C2=O)c1 (centres undefined) | – | active: 10 µM
CCCCOc1ccc(/C=N/NC(=O)c2csc(C)c2C)cc1 | – | inconclusive: 29.1 µM [inhibitor, single point]
Nc1ccccc1N=Nc1ccccc1N | – | inconclusive: 10.3 µM [activator, partial curve]
O=C(COC(=O)c1c[nH]c2ccccc12)Nc1ccc(F)cc1 | inactive: 6.83% | –
N#CCCn1c(O)c(N=NC(=O)CNC(=O)c2cccs2)c2ccccc21 | inactive: -22.8% | –
Cc1ccc2nc(N3CCN(Cc4nnnn4Cc4ccccc4)CC3)c(C#N)cc2c1 | inactive: 1.47% | –

Molecules shown so far that contain two or more sulfur atoms:
SMILES | activity change, negative = inhibition | Potency
O=C(CSc1ccsc1[N+](=O)[O-])Nc1cccc(F)c1 | – | inconclusive: 16.4 µM [activator, partial curve, poor fit]
CCOC(=O)c1cc(-c2ccccc2)sc1NC(=O)CSc1nnc(N)s1 | – | inconclusive: 32.6 µM [inhibitor, partial curve, poor fit]

Additional compounds follow:

SMILES | activity change, negative = inhibition | Potency
COCCn1c(SCC(=O)NCCc2ccccc2)nc2c([nH]c3ccccc32)c1=O | – | inconclusive: 14.6 µM [activator, partial curve, poor fit]
COc1ccc2c(/C=N/Nc3ccc(C(=O)O)cc3)c[nH]c2c1 | – | inconclusive: 3.26 µM [activator, full curve]
COc1ccccc1NC(=O)c1c(Nc2ccccc2F)sc(C(=O)Nc2cccc(Cl)c2)c1N | – | inconclusive: 23.1 µM [inhibitor, single point]
CCc1cccc(NC(=O)COC(=O)c2cc(=O)c3ccccc3o2)c1 | – | inconclusive: 23.1 µM [activator, partial curve, poor fit]
CC1(C)Cc2ccccc2-c2nnc(SCc3ccccc3)n21 | inactive: 15.7% | –
C/C(=N\O)c1ccco1 | – | inconclusive: 14.6 µM [activator, partial curve, poor fit]
CCOC(=O)c1[nH]c2ccc(F)cc2c1NC(=O)CN1CCN(C/C=C/c2ccccc2)CC1 | – | inconclusive: 2.06 µM [inhibitor, partial curve, poor fit]
CC1CCCCN1C(=O)CSc1nc(-c2ccccc2)cn1N (centres undefined) | – | inconclusive: 18.3 µM [activator, partial curve]
COc1cc2cnc(CCCC#N)cc2cc1OC | – | inconclusive: 20.6 µM [activator, single point]
CN(c1ccccc1)P(=O)(N(C)c1ccccc1)N(C)c1ccccc1 | – | inconclusive: 13 µM [inhibitor, partial curve]
COc1ccc(S(=O)(=O)Nc2cccc3c2O[C@H](CN(C)S(=O)(=O)c2cccs2)[C@@H](C)CN([C@H](C)CO)C3=O)cc1 | inactive: 8.35% | –
COC(=O)c1cc(-c2ccc(Cl)cc2)n(-c2ccc(S(N)(=O)=O)cc2)n1 | – | inconclusive: 23.1 µM [inhibitor, single point]
O=C(COC(=O)c1ccc2c(c1)C(=O)N(c1cccc3ncccc13)C2=O)c1ccc(Cl)cc1 | inactive: -16.8% | –
CCc1c(O)nc(SCC(=O)Nc2ccccc2C)n(-c2ccc(C)cc2)c1=O | – | inconclusive: 5.8 µM [activator, full curve, poor fit]
CC(C)Cn1c(SCC(=O)NCc2ccc(Cl)cc2)nnc1-c1cccc(S(=O)(=O)N2CCOCC2)c1 | – | inconclusive: 18.4 µM [inhibitor, single point]
CSc1ncccc1C(=O)OCc1ccc(COC(=O)c2cccnc2SC)cc1 | – | inconclusive: 29.1 µM [activator, single point]
CC(=O)N1N=C(c2ccc(C)cc2)CC1c1ccco1 (centres undefined) | – | inconclusive: 18.3 µM [activator, partial curve]
CCC(=O)N1CCN(c2ccc(NC(=O)c3ccc([N+](=O)[O-])o3)cc2Cl)CC1 | – | inconclusive: 29.1 µM [inhibitor, single point]
O=C(N/N=C/c1cn(Cc2ccccc2)c2ccccc12)c1cccnc1 | inactive: 16.9% | –
COc1cc2[nH]c(C(=O)N3CCN(C)CC3)cc2c(OC)c1OC | – | inconclusive: 29.1 µM [activator, single point]
COc1ccccc1C(=O)COC(=O)c1ccccc1OCC(=O)Nc1ccc(SC(F)F)cc1 | – | active: 4.61 µM
Cc1cc(C)cc(OCC(=O)Nc2cnn(CCCC(=O)O)c2)c1 | inactive: 5.24% | –
COc1cc2oc(=O)cc(-c3ccc(-c4ccc(O)cc4)cc3)c2c(OC)c1OC | – | inconclusive: 29.1 µM [inhibitor, single point]

Some values from above:
`COc1cc(C(=O)Nc2cccc(-c3nc4ncccc4o3)c2C)cc(OC)c1OC` | activity change, negative = inhibition: inactive: -15.5%
`CC(C)CCC1=NN(C(=O)c2ccco2)C(O)(C(F)(F)F)C1` (centres undefined) | Potency: inconclusive: 29.1 µM [inhibitor, single point]
